Measurements: publication PMC12412326 (Current Issues in Molecular Biology, 2025)
Where a sequence shows no end group, the ends are not given. HELM strings list residues between dots; [ac] is acetyl, [am] amide, other brackets name non-standard units.

Assay: general procedure: Fmoc solid-phase peptide synthesis; Rink amide resin (loading capacity: 0.6 mmol/g); HBTU/HOBt, DIPEA
Settings: whole synthesis, analytical HPLC; MALDI-TOF MS

Row | Substance | final HPLC purity [%]
1 | FLGALFKVASKLVPAAICSFSKKC | 90.09
2 | PEPTIDE1{F.A.K.W.A.F.K.W.L.K.K.[am]}$$$$V2.0 | 97.899
